{"source": "paper PMC4027163", "system": "PvuRts1I, N-terminal His tag", "experiment": "EMSA", "conditions": "5 mM Ca2+; none; EMSA: 20 mM Tris/HCl pH 8.0, 150 mM NaCl, 2 uM 32-mer duplex in 10 ul; recombinant protein; protein details: N-terminal MGHHHHHHEF; label: 3'-Cy5 (EMSA)", "note": "For at least one entry, the source does not settle the construct or the ends of the probe."}
{"sequence": "TCTGCCCACAATGCCGGTGAATCTAGGGTACG (double strand) [32-mer C-C oligoduplex]", "values": [{"measurement": "binding result", "result": "binds"}]}
